# Source: PubChem BioAssay AID493014 (National Center for Advancing Translational Sciences (NCATS), 2011)
# The list shows a part of the results. These are further read-outs of the screen, such as a control signal, another cell line or another target. No call is given for them. The list favours compounds with an active or inconclusive main result. Words in brackets tell the shape of the fitted curve; partial curves, single points and poor fits give uncertain potencies.
# Assay: qHTS Assay to Find Inhibitors of Chronic Active B-Cell Receptor Signaling
# Settings: ABC-DLBCL IkBa-CBG/CBR reporter, luminescence ratio (green luciferase fused to IkBa over red control in TMD8 lymphoma cells), 4 h
# Summary of the method: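 Doxycycline induced both beetle luciferases in TMD8 lymphoma cells; IKK-driven degradation limits the IkappaBalpha-fused green signal, while red luminescence normalises for cell number and nonspecific effects. Compounds tested up to 46 uM, 4 hrs.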
# [1] = measured here: CBR red luminescence, cell number
# [2] = measured here: IkBa-CBG green luminescence
Compound,AC50 [1],AC50 [2]
COc1cc2c(cc1NC(=O)CSc1ccccn1)oc1ccccc12,"0.891 µM [falling, full curve]",–
Cc1cccc(N=C2NC(=O)/C(=C/c3cccnc3)S2)c1,"12.6 µM [falling, single point]",–
CN(CC(CC(=O)Nc1nncs1)c1ccccc1)S(=O)(=O)c1ccc(Br)cc1 (stereo not drawn),"17.8 µM [falling, partial curve, poor fit]",–
CCCCN(C)CCCNC(=O)C1CCC(CNS(=O)(=O)c2c(C)cc(C)cc2C)CC1 (stereo not drawn),"6.31 µM [falling, single point]",–
O=C(Nc1ccc(F)cc1F)c1ccc(S(=O)(=O)N2CCCCC2)cc1,"12.6 µM [falling, single point]",–
O=C(N/N=C/c1ccncc1)c1ccc2c(c1)OCO2,"5.01 µM [falling, partial curve]",–
COC(=O)C1C(c2ccc(Br)cc2)Nc2nnc(C(F)(F)F)n2C1(C)O (stereo not drawn),"20 µM [falling, single point]",–
COc1ccc(C2=NN(C(=O)c3ccccc3)C(c3ccc(OC)c(OC)c3)C2)c(OC(C)=O)c1 (stereo not drawn),"0.562 µM [rising, full curve, poor fit]",–
COc1ccc2c3c(cccc13)OC2=O,"35.5 µM [rising, single point]",–
Cc1ccc(C)c(NC(CC(=O)c2ccccc2)C(=O)OCC(=O)c2cccs2)c1 (stereo not drawn),"6.51 µM [rising, partial curve, poor fit]",–
O=C(O)C(c1ccccc1)N1C(=O)/C(=C\c2ccc(-c3cccc(Cl)c3)o2)SC1=S (stereo not drawn),"22.4 µM [falling, partial curve, poor fit]",–
CCOc1cc(CNC2CCCC2)cc(Cl)c1OCc1ccc(F)cc1,"9.2 µM [falling, partial curve, poor fit]","13 µM [rising, partial curve, poor fit]"
O=C(O)CCCC(=O)Nc1ccccc1C(=O)O,"35.5 µM [falling, single point]",–
CCc1cc2c(NCc3ccccc3)nc(C)nc2s1,"14.1 µM [falling, partial curve]",–
COC(=O)c1ccc(/C=N/NS(=O)(=O)c2cc(C)ccc2C)cc1,–,"3.26 µM [falling, full curve]"
COc1ccccc1/C=C/C=N/N1CCN(Cc2ccc(Cl)cc2)CC1,"22.4 µM [falling, single point]",–
CC1CCN(C(=O)CN(c2ccc(Cl)c(C(F)(F)F)c2)S(C)(=O)=O)CC1,"13 µM [falling, partial curve, poor fit]",–
CC(C)(C)c1ccc(OC(=O)N2CCOCC2)cc1,"14.1 µM [rising, partial curve, poor fit]",–
O=C(COC(=O)Cc1cccs1)Nc1ccccc1F,"0.184 µM [falling, full curve, poor fit]",–
NS(=O)(=O)c1ccc(N=Nc2c[nH]c(=O)c(O)c2)cc1,"10 µM [rising, partial curve, poor fit]","17.8 µM [rising, partial curve, poor fit]"

Compound,AC50 [1],AC50 [2]
C/C(=N\NC(=O)c1csc2ccccc12)c1ccc(O)cc1,"2.06 µM [falling, full curve, poor fit]",–
Cc1nnc(SCC(=O)c2c[nH]c3ccccc23)n1C1CC1,"32.6 µM [falling, partial curve, poor fit]",–
CC(c1ccccc1)C1C(C#N)=C(N)OC2=C1C(=O)CC(C)(C)C2 (stereo not drawn),"35.5 µM [falling, single point]",–
Cc1occc1-c1n[nH]c(=S)n1CC(C)C,"3.66 µM [rising, partial curve, poor fit]",–
CCOC(=O)CN1CC23C=CC(O2)C(C(=O)Nc2ccc(F)c(C)c2)C3C1=O (stereo not drawn),"14.6 µM [rising, partial curve, poor fit]",–
O=C1c2ccccc2C(O)N1Cc1cccs1 (stereo not drawn),"6.31 µM [rising, single point]",–
Cc1cccc(NC(=S)NNC(=O)c2csc(C)c2)c1,"20.6 µM [falling, partial curve]",–
COC(=O)CCC(=O)Nc1cc(Cl)cc(Cl)c1,–,"5.01 µM [rising, full curve]"
O=C(c1cnc(Cl)c(Cl)c1)N1CCN(S(=O)(=O)c2ccc3ccccc3c2)CC1,"13 µM [falling, partial curve]",–
CCNC(=S)N/N=C(\C)c1ccc2ccccc2c1,"8.91 µM [falling, partial curve, poor fit]","25.1 µM [falling, single point]"
Cc1cc(C)c2c(N)c(C(=O)c3cccc(Cl)c3)sc2n1,"5.8 µM [rising, partial curve, poor fit]",–
CCCn1c2ccc(/C(C)=N\O)cc2c2cc(/C(C)=N/O)ccc21,"7.94 µM [falling, partial curve, poor fit]",–
CC1(OC(=O)CCc2ccccc2)C(=O)C=C2C=C(c3ccc(C#N)cc3)N(Cc3ccco3)C=C2C1=O (stereo not drawn),"0.112 µM [rising, full curve, poor fit]",–
Cc1ccnc(NC(=O)C2COc3ccccc3O2)c1 (stereo not drawn),"11.6 µM [falling, partial curve, poor fit]",–
CC(C)NCC(O)(c1ccc(Cl)cc1)c1ccc(Cl)cc1,"35.5 µM [falling, single point]",–
N#CCSc1nccc(-c2cc(Cl)sc2Cl)n1,"3.26 µM [rising, full curve, poor fit]",–
COc1cc(NC(=O)COc2cccc(C)c2C)ccc1NC(=O)c1ccco1,"6.31 µM [rising, partial curve, poor fit]",–
CCOc1ccc(N(CC(=O)NC(C)C)C(=O)CCC(=O)Nc2ccccn2)cc1,"11.2 µM [falling, partial curve]",–
O=C(NCCCN1CCCC1)C1CCN(C(=O)c2cc3sccc3n2Cc2ccc(F)cc2)CC1,"23.1 µM [rising, single point]",–
c1ccc2c(c1)nc(N1CCOCC1)c1c3ccccc3[nH]c21,"35.5 µM [falling, partial curve, poor fit]",–

# A stretch from further up, for reference:
Compound,AC50 [1],AC50 [2]
Cc1occc1-c1n[nH]c(=S)n1CC(C)C,"3.66 µM [rising, partial curve, poor fit]",–
CCOC(=O)CN1CC23C=CC(O2)C(C(=O)Nc2ccc(F)c(C)c2)C3C1=O (stereo not drawn),"14.6 µM [rising, partial curve, poor fit]",–
